Reference: patent US8440708B2, “Triazole-substituted arylamides as P2X3 and P2X2/3 antagonists” (Roche Palo Alto LLC, priority 2007, dated 2013)
The match of structure and compound is tentative.

Amino acid sequences for entries named in this document (tags omitted).
UniProt P49654, whole entry: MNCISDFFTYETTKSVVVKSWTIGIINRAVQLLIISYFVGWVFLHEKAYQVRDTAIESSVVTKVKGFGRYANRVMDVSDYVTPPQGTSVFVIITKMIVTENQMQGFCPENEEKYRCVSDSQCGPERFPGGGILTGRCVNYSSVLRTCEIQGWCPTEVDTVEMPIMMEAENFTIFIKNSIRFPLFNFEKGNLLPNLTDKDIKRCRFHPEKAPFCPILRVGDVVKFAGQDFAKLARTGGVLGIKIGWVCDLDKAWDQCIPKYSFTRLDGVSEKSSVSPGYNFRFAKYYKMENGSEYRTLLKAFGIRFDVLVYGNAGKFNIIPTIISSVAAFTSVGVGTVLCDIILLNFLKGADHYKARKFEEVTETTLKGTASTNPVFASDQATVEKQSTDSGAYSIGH
UniProt P56373, whole entry: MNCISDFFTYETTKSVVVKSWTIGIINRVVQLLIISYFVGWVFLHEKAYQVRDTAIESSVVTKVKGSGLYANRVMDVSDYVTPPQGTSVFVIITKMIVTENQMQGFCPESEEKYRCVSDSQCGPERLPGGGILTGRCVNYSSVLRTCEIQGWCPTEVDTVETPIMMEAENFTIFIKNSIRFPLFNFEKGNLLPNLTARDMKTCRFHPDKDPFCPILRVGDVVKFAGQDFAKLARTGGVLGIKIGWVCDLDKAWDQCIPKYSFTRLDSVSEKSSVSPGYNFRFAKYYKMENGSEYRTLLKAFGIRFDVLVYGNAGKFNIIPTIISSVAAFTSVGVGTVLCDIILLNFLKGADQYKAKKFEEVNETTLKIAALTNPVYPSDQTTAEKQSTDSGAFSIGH
UniProt Q9UBL9, whole entry: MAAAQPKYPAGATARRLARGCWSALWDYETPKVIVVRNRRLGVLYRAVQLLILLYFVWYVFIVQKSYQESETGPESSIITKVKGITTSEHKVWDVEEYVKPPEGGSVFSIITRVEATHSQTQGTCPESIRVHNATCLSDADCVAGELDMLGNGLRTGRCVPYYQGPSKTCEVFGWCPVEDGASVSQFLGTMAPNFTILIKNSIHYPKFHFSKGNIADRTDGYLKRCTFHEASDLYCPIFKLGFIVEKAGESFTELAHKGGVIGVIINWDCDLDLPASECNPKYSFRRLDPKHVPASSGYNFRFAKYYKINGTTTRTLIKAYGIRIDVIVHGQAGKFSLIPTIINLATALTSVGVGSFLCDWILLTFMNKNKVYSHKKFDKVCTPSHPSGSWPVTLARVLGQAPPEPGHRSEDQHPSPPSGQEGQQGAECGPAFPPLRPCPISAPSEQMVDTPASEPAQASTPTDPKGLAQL

Assays:
[1] = target: rat P2X3 receptor (Rattus norvegicus, UniProt P49654); assay: P2X3/P2X2/3 FLIPR (Fluorometric Imaging Plate Reader) Assay, P2X3; settings: CHO-K1 cells transfected with rat P2X3; agonist α,β-meATP 1 μM; Table 1
Method: P2X3/P2X2/3 FLIPR (Fluorometric Imaging Plate Reader) Assay
CHO-K1 cells were transfected with cloned rat P2X3 or human P2X2/3 receptor subunits and passaged in flasks. 18-24 hours before the FLIPR experiment, cells were released from their flasks, centrifuged, and resuspended in nutrient medium at 2.5×10^5 cells/ml. The cells were aliquoted into black-walled 96-well plates at a density of 50,000 cells/well and incubated overnight in 5% CO2 at 37° C. On the day of the experiment, cells were washed in FLIPR buffer (calcium- and magnesium-free Hank's balanced salt solution, 10 mM HEPES, 2 mM CaCl2, 2.5 mM probenecid; FB). […]
Test compounds (dissolved in DMSO at 10 mM and serially diluted with FB) or vehicle were added to each well (25 μl of a 4× solution) and allowed to equilibrate for 20 minutes at room temperature. The plates were then placed in the FLIPR and a baseline fluorescence measurement (excitation at 488 nm and emission at 510-570 nm) was obtained for 10 seconds before a 100 μl/well agonist or vehicle addition. […] Fluorescence was measured for an additional 2 minutes at 1 second intervals after agonist addition. A final addition of ionomycin (5 μM, final concentration) was made to each well of the FLIPR test plate to establish cell viability and maximum fluorescence of dye-bound cytosolic calcium. […]

[2] = target: human P2X2/3 receptor (Homo sapiens, UniProt P56373+Q9UBL9); assay: P2X3/P2X2/3 FLIPR (Fluorometric Imaging Plate Reader) Assay, P2X2/3; settings: CHO-K1 cells transfected with human P2X2/3; agonist α,β-meATP 5 μM; Table 1

Cc1ccc(-c2cc(C(=O)N[C@@H](C)CO)cc(-n3ncnc3C3CCC3)c2)nc1
P2X3 pKi [1]: 8.25 | P2X2/3 pKi [2]: 6.25
